Reference: paper doi:10.1101/521369

By UniProt entry, the sequences of proteins in these tests, tags left out.
UniProt Q9QZ81: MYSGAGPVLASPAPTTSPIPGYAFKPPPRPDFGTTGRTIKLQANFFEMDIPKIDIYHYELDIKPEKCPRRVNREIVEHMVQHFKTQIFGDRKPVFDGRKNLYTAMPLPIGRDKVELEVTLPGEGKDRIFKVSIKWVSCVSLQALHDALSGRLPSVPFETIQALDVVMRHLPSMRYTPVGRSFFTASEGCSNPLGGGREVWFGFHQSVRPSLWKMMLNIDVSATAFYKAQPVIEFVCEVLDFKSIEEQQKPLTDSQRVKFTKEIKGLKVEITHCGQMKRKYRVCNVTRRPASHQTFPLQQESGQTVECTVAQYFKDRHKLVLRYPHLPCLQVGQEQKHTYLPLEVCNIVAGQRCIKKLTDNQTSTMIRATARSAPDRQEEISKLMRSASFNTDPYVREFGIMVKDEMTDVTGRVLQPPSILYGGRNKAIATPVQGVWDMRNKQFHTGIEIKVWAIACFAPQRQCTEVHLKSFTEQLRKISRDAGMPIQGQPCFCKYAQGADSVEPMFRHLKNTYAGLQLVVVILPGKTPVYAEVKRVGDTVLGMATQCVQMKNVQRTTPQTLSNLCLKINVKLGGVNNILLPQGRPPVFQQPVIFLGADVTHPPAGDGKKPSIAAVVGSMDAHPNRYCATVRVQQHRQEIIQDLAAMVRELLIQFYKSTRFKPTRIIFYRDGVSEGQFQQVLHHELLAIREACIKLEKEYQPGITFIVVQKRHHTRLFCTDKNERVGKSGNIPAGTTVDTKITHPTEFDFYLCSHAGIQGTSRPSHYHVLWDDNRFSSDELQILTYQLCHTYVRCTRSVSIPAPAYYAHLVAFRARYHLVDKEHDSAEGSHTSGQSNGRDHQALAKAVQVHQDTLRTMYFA

What was measured:
[1] = molecular target: T1, phospholipase Cβ1 (PLCβ1), endogenous (rat (endogenous in PC12 and A10)) (UniProt P10687); experiment: affinity purification with mass spectrometry
T1 sequence: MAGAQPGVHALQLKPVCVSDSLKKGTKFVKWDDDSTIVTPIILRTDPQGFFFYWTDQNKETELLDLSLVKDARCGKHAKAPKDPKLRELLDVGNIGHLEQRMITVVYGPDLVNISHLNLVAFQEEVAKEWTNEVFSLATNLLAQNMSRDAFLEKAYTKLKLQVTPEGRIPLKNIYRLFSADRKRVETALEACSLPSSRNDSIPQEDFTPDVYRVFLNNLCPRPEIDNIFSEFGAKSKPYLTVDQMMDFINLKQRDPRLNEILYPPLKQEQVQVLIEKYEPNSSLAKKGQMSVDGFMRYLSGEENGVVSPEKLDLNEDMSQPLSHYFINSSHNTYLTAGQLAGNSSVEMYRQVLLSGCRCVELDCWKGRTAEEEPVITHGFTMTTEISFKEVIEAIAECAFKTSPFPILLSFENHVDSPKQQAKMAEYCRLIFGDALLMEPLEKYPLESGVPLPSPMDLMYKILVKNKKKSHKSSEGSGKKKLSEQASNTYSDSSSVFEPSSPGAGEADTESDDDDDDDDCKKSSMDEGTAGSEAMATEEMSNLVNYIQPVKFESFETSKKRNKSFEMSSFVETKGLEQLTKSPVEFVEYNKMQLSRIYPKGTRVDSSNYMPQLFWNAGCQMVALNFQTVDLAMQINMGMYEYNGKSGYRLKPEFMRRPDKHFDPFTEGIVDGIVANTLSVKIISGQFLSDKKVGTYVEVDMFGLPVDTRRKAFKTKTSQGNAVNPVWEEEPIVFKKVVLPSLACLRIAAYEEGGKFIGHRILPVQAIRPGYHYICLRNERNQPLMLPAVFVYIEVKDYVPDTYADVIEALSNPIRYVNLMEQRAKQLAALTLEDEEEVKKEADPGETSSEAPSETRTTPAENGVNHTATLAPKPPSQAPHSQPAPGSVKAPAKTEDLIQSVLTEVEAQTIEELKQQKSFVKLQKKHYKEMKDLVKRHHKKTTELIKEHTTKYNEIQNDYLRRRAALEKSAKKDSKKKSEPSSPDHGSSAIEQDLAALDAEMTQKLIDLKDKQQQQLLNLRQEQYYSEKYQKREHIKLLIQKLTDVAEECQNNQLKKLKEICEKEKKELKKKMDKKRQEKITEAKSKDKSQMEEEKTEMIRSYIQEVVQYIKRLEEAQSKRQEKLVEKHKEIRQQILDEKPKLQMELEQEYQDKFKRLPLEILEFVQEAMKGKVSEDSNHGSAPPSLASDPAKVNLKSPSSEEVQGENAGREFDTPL

[2] = molecular target: argonaute 2 (Ago2), endogenous (rat (endogenous in PC12 and A10)) (UniProt Q9QZ81); experiment: affinity purification with mass spectrometry

B1: eIF5B, endogenous (protein, UniProt B2GUV7 1-1216)
chain: MGKKQKNKSEDSTKDDTDLGALAAEIEGAGAAKEQEPQKGKGKKKKEKKKQDFDENDILRELEELSLEAQGIGADRDAATVKPTENNEEESASKQDKKKKGQKGKKTSFDENDSEELEDKDSKSKKPARPNSEVLLSGSEDADDPNKLSKKGKKAQKSTKKRDGSEEDEDNSKRSKERSRVNSSGESGGESDEFLQSRKGQKKNQKNKSVPTIDSGNEDDDSSFKIKTVAQKKAEKKERERKKREEEKAKLRKVKEKEELEKGRKEQSKQREPQKRPDEEVLVLRGTPDAGAASEEKGDIAATLEDDNEGDKKKKDKKKKKTEKDDKEKEKKKGPSKSTVKAIQEALAKLREEEERQKREEEERIKRLEELEAKRKEEERLEQEKRERKKQKEKERKERLKKEGKLLTKSQREARARAEVTLRHLQAQGVEVPSKDSLPKKRPVYEDKKKKKTPQQLESKEALETVEVSAPVEVVDQGVPEKEETPPSVDAEEDEETEDAGLDDWEAMASDEEREKEGNMIHIEVEENPEEEEEEEEDEDEEDSEDEEDEGDSEGSDGDEEDYKLSDEKDLGKAGDTKPNKDASSDSEYDSDDDRTKEERAYDKAKRRIEKRRLEHGKNVNTEKLRAPIICVLGHVDTGKTKILDKLRHTHVQDGEAGGITQQIGATNVPLEAINEQTKMIKNFDRENVRIPGMLIIDTPGHESFSNLRNRGSSLCDIAILVVDIMHGLEPQTIESINILKSKKCPFIVALNKIDRLYDWKKSPDSDVAVTLKKQKKNTKDEFEERAKAIIVEFAQQGLNAALFYENKDPRTFVSLVPTSAHTGDGMGSLIYLLVELTQTMLSKRLAHCEELRAQVMEVKALPGMGTTIDVILINGRLKEGDTIIVPGVEGPIVTQIRGLLLPPPMKELRVKNQYEKHKEVEAAQGVKILGKDLEKTLAGLPLLVAYKDDEIPVLKDELIHELKQTLNAIKLEEKGVYVQASTLGSLEALLEFLKTSEVPYAGINIGPVHKKDVMKASVMLEHDPQYAVILAFDVRIERDAQEMADSLGVRIFSAEIIYHLFDAFTKYRQDYKKQKQEEFKHIAVFPCKMKILPQYIFNSRDPIVIGVTVEAGQVKQGTPMCVPSKNFVDIGIVTSIEINHKQVDVAKKGQEVCVKIEPIPGESPKMFGRHFEATDILVSKISRQSIDALKDWFRDEMQKSDWQLIVELKKVFEII
Which binding [1] does the source give for B1 here?
Its binding is “binds”.

And the binding [2]?
The binding was “no binding”.

No constants are given. Whether binding was seen depends on the method and setting. In cells and extracts the contact can be indirect. Here binding means that the protein was enriched with, or labelled near, the bait; the list need not be complete. For some assays here: No binding means not detected with the bait.
